Experimental data: PubChem BioAssay AID652272 (Drosophila RNAi Screening Center, 2013)

- Aim: 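Genome-wide knock-down search for components of Hedgehog signalling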 (primary screen)
- Cells: Drosophila clone 8 (Cl8) cells
- Knock-down reagent: long dsRNA against Drosophila genes
- Measurement: 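Plate reader light from a firefly reporter under a ptc promoter fragment that responds to Hedgehog, with Renilla light as transfection reference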
- Scale: firefly Hh reporter signal: higher = more ptc reporter light; Renilla reference signal: higher = more Renilla control light
- Active means: 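Hit when the z-score averaged over two replicates is under -2 or over +3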
- Calls: active = hit: reporter lowered or raised; inactive = not a hit
The screen tested about 21,000 reagents; shown is an unselected part of those with a known target gene and a result. Over the whole deposit, 503 (2.4%) are marked active. 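Raw plate light values, not normalised; calls rest on replicate z-scores that were not deposited; hits include reporter decreases as well as increases.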 Entries without a mark were called inactive. A plus sign joins genes that one reagent is predicted to hit. Not given: the amount of reagent, the time to read-out.

{"gene":"Sting","DRSC id":"DRSC06615","firefly Hh reporter signal, replicate 1":1.42e5,"firefly Hh reporter signal, replicate 2":59778,"Renilla reference signal, replicate 1":3110,"Renilla reference signal, replicate 2":3958}
{"gene":"CG34028","DRSC id":"DRSC17614","firefly Hh reporter signal, replicate 1":5.70e5,"firefly Hh reporter signal, replicate 2":2.12e5,"Renilla reference signal, replicate 1":31811,"Renilla reference signal, replicate 2":4679}
{"gene":"Hsp60D (Heat shock protein 60D)","DRSC id":"DRSC02543","firefly Hh reporter signal, replicate 1":89148,"firefly Hh reporter signal, replicate 2":49835,"Renilla reference signal, replicate 1":2538,"Renilla reference signal, replicate 2":4485}
{"gene":"Sk2 (Sphingosine kinase 2)","DRSC id":"DRSC08556","firefly Hh reporter signal, replicate 1":84373,"firefly Hh reporter signal, replicate 2":63195,"Renilla reference signal, replicate 1":3104,"Renilla reference signal, replicate 2":2508}
{"gene":"MESR6 (Misexpression suppressor of ras 6)","DRSC id":"DRSC10720","firefly Hh reporter signal, replicate 1":98848,"firefly Hh reporter signal, replicate 2":54024,"Renilla reference signal, replicate 1":4345,"Renilla reference signal, replicate 2":2194}
{"gene":"Sardh (Sarcosine dehydrogenase)","DRSC id":"DRSC06981","firefly Hh reporter signal, replicate 1":1.38e5,"firefly Hh reporter signal, replicate 2":94114,"Renilla reference signal, replicate 1":6284,"Renilla reference signal, replicate 2":3920}
{"gene":"CG5510","DRSC id":"DRSC15823","firefly Hh reporter signal, replicate 1":4.46e5,"firefly Hh reporter signal, replicate 2":98771,"Renilla reference signal, replicate 1":24320,"Renilla reference signal, replicate 2":2875}
{"gene":"Rx (Retinal Homeobox)","DRSC id":"DRSC03837","firefly Hh reporter signal, replicate 1":1.61e5,"firefly Hh reporter signal, replicate 2":3.08e5,"Renilla reference signal, replicate 1":4933,"Renilla reference signal, replicate 2":13637}
{"gene":"Rx (Retinal Homeobox)","DRSC id":"DRSC04652","firefly Hh reporter signal, replicate 1":1.18e5,"firefly Hh reporter signal, replicate 2":58824,"Renilla reference signal, replicate 1":3291,"Renilla reference signal, replicate 2":5840}
{"gene":"Coq2 (Coenzyme Q biosynthesis protein 2)","DRSC id":"DRSC16516","firefly Hh reporter signal, replicate 1":1.50e5,"firefly Hh reporter signal, replicate 2":2.29e5,"Renilla reference signal, replicate 1":6295,"Renilla reference signal, replicate 2":6285}
{"gene":"cindr (CIN85 and CD2AP related)","DRSC id":"DRSC14126","firefly Hh reporter signal, replicate 1":1.00e5,"firefly Hh reporter signal, replicate 2":80730,"Renilla reference signal, replicate 1":1952,"Renilla reference signal, replicate 2":2113}
{"gene":"cindr (CIN85 and CD2AP related)","DRSC id":"DRSC14298","firefly Hh reporter signal, replicate 1":47347,"firefly Hh reporter signal, replicate 2":84368,"Renilla reference signal, replicate 1":1270,"Renilla reference signal, replicate 2":5456}
{"gene":"CG5516","DRSC id":"DRSC15826","firefly Hh reporter signal, replicate 1":1.29e5,"firefly Hh reporter signal, replicate 2":1.75e5,"Renilla reference signal, replicate 1":2722,"Renilla reference signal, replicate 2":24048}
{"gene":"CG14570","DRSC id":"DRSC11731","firefly Hh reporter signal, replicate 1":95094,"firefly Hh reporter signal, replicate 2":1.05e5,"Renilla reference signal, replicate 1":3379,"Renilla reference signal, replicate 2":3330}
{"gene":"CG31266","DRSC id":"DRSC15747","firefly Hh reporter signal, replicate 1":62019,"firefly Hh reporter signal, replicate 2":96976,"Renilla reference signal, replicate 1":1712,"Renilla reference signal, replicate 2":2819}
{"gene":"nod (no distributive disjunction)","DRSC id":"DRSC18900","firefly Hh reporter signal, replicate 1":3.81e5,"firefly Hh reporter signal, replicate 2":1.75e5,"Renilla reference signal, replicate 1":21788,"Renilla reference signal, replicate 2":3517}
{"gene":"nod (no distributive disjunction)","DRSC id":"DRSC20356","firefly Hh reporter signal, replicate 1":1.06e5,"firefly Hh reporter signal, replicate 2":86616,"Renilla reference signal, replicate 1":2516,"Renilla reference signal, replicate 2":2188}
{"gene":"Fum1 (Fumarase 1)","DRSC id":"DRSC18344","firefly Hh reporter signal, replicate 1":1.38e5,"firefly Hh reporter signal, replicate 2":1.15e5,"Renilla reference signal, replicate 1":2906,"Renilla reference signal, replicate 2":2379}
{"gene":"Ltn1 (Listerin E3 ubiquitin protein ligase 1)","DRSC id":"DRSC11056","firefly Hh reporter signal, replicate 1":57575,"firefly Hh reporter signal, replicate 2":60985,"Renilla reference signal, replicate 1":2109,"Renilla reference signal, replicate 2":2020}
{"gene":"Ltn1 (Listerin E3 ubiquitin protein ligase 1)","DRSC id":"DRSC11058","firefly Hh reporter signal, replicate 1":1.51e5,"firefly Hh reporter signal, replicate 2":1.39e5,"Renilla reference signal, replicate 1":5312,"Renilla reference signal, replicate 2":3936}
{"gene":"asl (asterless)","DRSC id":"DRSC12319","firefly Hh reporter signal, replicate 1":1.19e5,"firefly Hh reporter signal, replicate 2":1.04e5,"Renilla reference signal, replicate 1":5776,"Renilla reference signal, replicate 2":4652}
{"gene":"Tsp26A (Tetraspanin 26A)","DRSC id":"DRSC03135","firefly Hh reporter signal, replicate 1":1.47e5,"firefly Hh reporter signal, replicate 2":68144,"Renilla reference signal, replicate 1":4048,"Renilla reference signal, replicate 2":5955}
{"gene":"CG7366","DRSC id":"DRSC10825","firefly Hh reporter signal, replicate 1":7.41e5,"firefly Hh reporter signal, replicate 2":1.06e5,"Renilla reference signal, replicate 1":4716,"Renilla reference signal, replicate 2":4716}
{"gene":"Atf-2 + veg (retired record)","DRSC id":"DRSC04130","firefly Hh reporter signal, replicate 1":1.19e5,"firefly Hh reporter signal, replicate 2":79768,"Renilla reference signal, replicate 1":5129,"Renilla reference signal, replicate 2":1544}
{"gene":"Atf-2 + veg (retired record)","DRSC id":"DRSC04413","firefly Hh reporter signal, replicate 1":6.57e5,"firefly Hh reporter signal, replicate 2":82220,"Renilla reference signal, replicate 1":3862,"Renilla reference signal, replicate 2":3862}
{"gene":"CG11590","DRSC id":"DRSC19411","firefly Hh reporter signal, replicate 1":70004,"firefly Hh reporter signal, replicate 2":1.63e5,"Renilla reference signal, replicate 1":2038,"Renilla reference signal, replicate 2":7248}
{"gene":"ebo (ellipsoid body open)","DRSC id":"DRSC18787","firefly Hh reporter signal, replicate 1":83207,"firefly Hh reporter signal, replicate 2":63872,"Renilla reference signal, replicate 1":1788,"Renilla reference signal, replicate 2":2081}
